In PubChem BioAssay AID540256 (National Center for Advancing Translational Sciences (NCATS), 2011):
About 3,700 (1.2%) of roughly 300,000 compounds were called active. The shares of active, inactive and inconclusive entries below differ from those in the screen. The call rests on the fitted dose curve; tested in HEK293 cells. Potencies of inconclusive entries are doubtful fits and often do not repeat.

assay: qHTS for Inhibitors of binding or entry into cells for Lassa Virus; conditions: Lassa virus pseudotype entry inhibition, cell reporter; series mostly up to 37.9 µM; further: nearly all actives have a fitted effect of over 50% in size
Potency means the concentration at half of the fitted maximal effect.

Structure (SMILES) | Potency
CC(C)(C)c1ccc(Cn2ccc(-c3ccc4c(c3)OCO4)n2)cc1 | inactive
CCc1nccn1C(=O)c1cnn2c(C(F)F)cc(-c3ccc(C)cc3)nc12 | inconclusive: 25.1 µM [inhibitor, single point]
CO/N=C1\CCCc2c(C(=O)NN)sc(SC)c21 | inconclusive: 15.8 µM [inhibitor, single point]
O=C(CN(c1ccc2c(c1)OCCO2)S(=O)(=O)c1ccccc1)NCc1ccc(Cl)cc1 | inactive
CCN(c1ccccc1)S(=O)(=O)c1ccc(C(=O)N2CCN(c3ccccc3)CC2)cc1 | active: 7.94 µM
CC1CCN(c2c(NCC3CCC(C(=O)NCCC4=CCCCC4)CC3)c(=O)c2=O)CC1 (stereo unspecified) | inactive
C=CCn1c(N)c(C(=O)NCC2CCCO2)c2nc3ccccc3nc21 (stereo unspecified) | inconclusive: 0.0291 µM [inhibitor, full curve, poor fit]
COc1cc(C2=NOC(C(=O)NCc3ccco3)C2)cc(OC)c1OC (stereo unspecified) | inconclusive: 6.51 µM [inhibitor, partial curve, poor fit]
Cc1cc(C(=O)COc2ccccc2C(N)=O)c(C)n1CC1CCCO1 (stereo unspecified) | inactive
OCCN1CCN(c2ncnc3c2cnn3-c2cccc(Cl)c2)CC1 | inconclusive: 3.16 µM [activator, single point]
COc1ccc(OC)c(/C=C(\NC(=O)c2ccccc2)C(=O)N/N=C/c2ccc(C)s2)c1 | inconclusive: 20.6 µM [inhibitor, partial curve, poor fit]
COCCOC(=O)c1[nH]c2c(c1C)C(=O)CC(c1ccc(N(C)C)cc1)C2 (stereo unspecified) | inconclusive: 14.1 µM [inhibitor, single point]
COCCN(CC(=O)NCC1CCCO1)C(=O)CCC(=O)Nc1cc(C)ccn1 (stereo unspecified) | inconclusive: 10 µM [activator, partial curve]
COc1ccc(OCc2ccc(-c3nc(C#N)c(NCc4ccc(F)cc4)o3)o2)cc1 | inactive
CCOc1ccc(-n2c(-c3ccc(Br)cc3)cc3c2CC(C)(C)CC3=O)cc1 | inconclusive: 0.794 µM [activator, full curve, poor fit]
CC(C)(C)NC(=O)C(c1ccc(O)cc1)N(C(=O)CCC(=O)Nc1nccs1)c1ccccc1F (stereo unspecified) | inactive
COc1ccc(S(=O)(=O)N(CC(=O)N2CCOCC2)Cc2ccccc2)cc1C | inconclusive: 16.4 µM [inhibitor, single point]
Cc1ccccc1NC(=O)CSc1nc(=O)n(CCN2CCOCC2)c2c1CCCC2 | inconclusive: 35.5 µM [activator, single point]
COc1c(C(N)=O)cc(-c2ccc(Cl)cc2)cc1-c1ccc(S(N)(=O)=O)cc1 | active: 25 µM
CC(=O)OC(C(=O)NCCc1ccccc1)c1cccnc1 (stereo unspecified) | inconclusive: 22.4 µM [activator, partial curve, poor fit]
O=S1(=O)N[C@H](Cc2ccccc2)COc2cc(Br)ccc21 | inconclusive: 3.15 µM [inhibitor, partial curve, poor fit]
C(=N\N(Cc1ccccc1)c1ccccc1)/c1ccco1 | inactive
CCOC(=O)C1=C(C)N=C2c3ccccc3C(=O)C2C1c1ccc(C)cc1 (stereo unspecified) | inconclusive: 11.2 µM [inhibitor, partial curve]
COC(=O)C1=C(C)NC(C)=C(C(=O)OC)C1C(=O)OCC(=O)N1CCCCC1C (stereo unspecified) | inactive

Compounds above with a thiophene ring, fused or not:
Structure (SMILES) | Potency
CO/N=C1\CCCc2c(C(=O)NN)sc(SC)c21 | inconclusive: 15.8 µM [inhibitor, single point]
COc1ccc(OC)c(/C=C(\NC(=O)c2ccccc2)C(=O)N/N=C/c2ccc(C)s2)c1 | inconclusive: 20.6 µM [inhibitor, partial curve, poor fit]

The results go on:

Structure (SMILES) | Potency
CCOP(=O)(c1ccc(N(C)C)cc1)C(O)c1ccccc1 (stereo unspecified) | inactive
CN(C(=O)COc1ccccc1)c1nnc(C23CC4CC(CC(C4)C2)C3)s1 | inactive
COc1cc(/C=C(\C#N)C(=O)NCC2CCCO2)ccc1OC(=O)c1ccco1 (stereo unspecified) | inactive
CC(=O)c1ccc(NC(=O)C2C3CCC(C3)C2C(=O)O)cc1 (stereo unspecified) | inactive
COc1cc(N)c2ncccc2c1Cl | inactive
CC1(C)CC(=O)c2cnc(NCC3CCCO3)nc2C1 (stereo unspecified) | inactive
Cc1cnc(NC(=O)CSCc2c(C)noc2C)s1 | inconclusive: 1.58 µM [inhibitor, partial curve, poor fit]
COc1ccc(C(c2nnnn2Cc2cccs2)N2CCN(c3ccccc3F)CC2)cc1OC (stereo unspecified) | inconclusive: 2.82 µM [inhibitor, full curve, poor fit]
CCCn1c(SCC(=O)Nc2nonc2C)nnc1-c1ccoc1C | inactive
CC(C)C(c1nnnn1C1CCCC1)N1CCc2ccccc21 (stereo unspecified) | inconclusive: 18.3 µM [inhibitor, partial curve, poor fit]
Cc1ccc(C)c(S(=O)(=O)N2CCCOC2CNC(=O)C(=O)NCc2ccccc2)c1 (stereo unspecified) | inconclusive: 3.98 µM [inhibitor, single point]
CCOC(=O)/C(=C\c1ccccc1)C(=O)c1cc(C(C)=O)c(Nc2ccccc2)s1 | inconclusive: 5.8 µM [inhibitor, full curve, poor fit]
Oc1ccc(/C=N/Nc2cccc3cccnc23)c(O)c1 | inconclusive: 29.1 µM [inhibitor, single point]
CCCC(=O)Nc1ccc(Cc2ccc(NC(=O)CCC)c(C(=O)O)c2)cc1C(=O)O | inconclusive: 7.94 µM [activator, partial curve, poor fit]
CCOc1ccc(/C=N/NC(=O)CC(=O)NCc2ccccc2)cc1 | inconclusive: 6.31 µM [inhibitor, partial curve, poor fit]
CC1=C(C(=O)Nc2ccccc2F)C(c2ccsc2)C2=C(CC(c3ccccc3)CC2=O)N1 (stereo unspecified) | inconclusive: 28.2 µM [inhibitor, single point]
O=C(c1ccc2c(c1)N(Cc1ccccc1F)C(=O)c1ccccc1S2=O)N1CCC(Cc2ccccc2)CC1 (stereo unspecified) | inconclusive: 8.91 µM [inhibitor, partial curve, poor fit]
COc1ccc2nc(N=Nc3ccc(O)c4ccccc34)sc2c1 | inconclusive: 12.6 µM [inhibitor, partial curve, poor fit]
CCc1ccccc1NC(=S)N1CCC(NC(=O)c2ccc(OC)cc2)CC1 | inactive
COCCOc1cc(NC(=O)CS(=O)CC(=O)N(C)C)c(Cl)cc1Cl (stereo unspecified) | inactive
Cc1cccc(-n2cc(-c3ccc([N+](=O)[O-])cc3)[nH]c2=S)c1 | inconclusive: 4.47 µM [activator, single point]
Cc1cccc(N(C)S(=O)(=O)c2nnc(NC(=O)C(C)(C)C)s2)c1 | inactive
COc1ccc(CNc2ncnc3ccccc23)cc1 | inconclusive: 0.316 µM [inhibitor, full curve, poor fit]
COc1cc(C2=NOC(C(=O)NCc3cccnc3)C2)cc(OC)c1OC (stereo unspecified) | inconclusive: 1 µM [inhibitor, full curve, poor fit]

Structure (SMILES) | Potency
CCc1c(C)n2nc(C)cc2[nH]c1=O | inactive
Cc1cccc(-n2ncc3c2CCCC3NC(=O)CN2CCCC2=O)c1C (stereo unspecified) | inconclusive: 35.5 µM [inhibitor, single point]
CCOC(=O)COc1ccccc1/C=C\[N+](=O)[O-] | active: 12.6 µM
O=C(N/N=C/c1ccncc1)c1ccncc1 | inconclusive: 10 µM [activator, partial curve]
CCCCOc1ccc(CC(=O)NCC(=O)O)cc1 | inconclusive: 35.5 µM [activator, single point]
c1csc(-c2nn3c(Cn4nnc5ccccc54)nnc3s2)c1 | inconclusive: 2.59 µM [inhibitor, partial curve, poor fit]
COc1ccc(NC(=O)CCCS(=O)(=O)c2nc(-c3ccccc3OC)cc(C(F)(F)F)n2)c(OC)c1 | inconclusive: 35.5 µM [inhibitor, single point]
Fc1ccc(-c2csc(N3CCC(c4ccccc4)C3)n2)cc1 (stereo unspecified) | inconclusive: 17.8 µM [inhibitor, single point]
C#CCOc1c(Cl)cc(C2C3=C(CCCC3=O)N(CC(=O)O)C3=C2C(=O)CCC3)cc1OC | inactive
Cc1[nH]c2ccccc2c1C(=O)C(C)Sc1nnc(C2CC2)o1 (stereo unspecified) | inactive
CCOC(=O)C1=C(C)N=c2s/c(=C/c3ccco3)c(=O)n2C1c1cccc(OC)c1 (stereo unspecified) | inconclusive: 35.5 µM [inhibitor, single point]
O=C(/C=C/c1ccco1)Nc1ccc(C(=O)N2CCOCC2)cc1 | inactive
O=C(Nc1ccccc1)N1CCCC1 | inconclusive: 3.66 µM [activator, full curve]
N#Cc1nc(-c2cccc3ccccc23)oc1N1CCCCC1 | inactive
Cc1nc([N+](=O)[O-])c(Br)n1CC(=O)c1ccc(F)cc1 | inconclusive: 35.5 µM [inhibitor, single point]
CCN(C(=O)Cn1c(=O)n(Cc2ccccc2)c(=O)c2ccccc21)c1cccc(C)c1 | inconclusive: 10.3 µM [inhibitor, partial curve]
C/C(=C\c1ccccc1)C(=O)N1CCN(c2cccc(C(F)(F)F)c2)CC1 | inactive
COc1ccc(CCn2c(C)cc(C(=O)CSc3nc(N)cc(=O)[nH]3)c2C)cc1 | inconclusive: 18.3 µM [inhibitor, partial curve, poor fit]
CCc1ccc(C2c3c(-c4cc(C)ccc4O)n[nH]c3C(=O)N2CCO)cc1 (stereo unspecified) | inconclusive: 2.24 µM [inhibitor, full curve]
CC1(CCc2ccccc2)NC(=O)N(CC(=O)N2CC(=O)Nc3ccccc32)C1=O (stereo unspecified) | inactive
CC(C)COC(=S)Nc1ccccc1 | inconclusive: 35.5 µM [activator, single point]
Cc1ccccc1-n1c(SC2CCOC2=O)nnc1-c1ccncc1 (stereo unspecified) | inactive
Cc1ccc(C)c(C(=O)CN2Cc3ccccc3C2=O)c1 | inconclusive: 0.562 µM [activator, single point]
